{"source": "patent US11331364B2", "about": "“Use for JNK inhibitor molecules for treatment of various diseases” (Xigen Inflammation Ltd., priority 2014, dated 2022)", "test_system": "Endotoxin-Induced Uveitis (EIU) model in rats", "assay": "Action duration in endotoxin-induced uveitis (EIU), clinical scoring and PMN cells quantification", "type": "in vivo, rat", "conditions": "2 mg/kg i.v. immediately before EIU induction", "procedure": "[…] (18) female Lewis rats (36 eyes) were randomly divided into 6 groups of 3 animals each. EIU was induced by a single footpad injection of 100 µl sterile pyrogen-free saline containing 200 µg of LPS (Lipopolysaccharides from Salmonella typhimurium, Sigma-Aldrich, France)(2 mg/ml).\nAnimals were treated 48 hours, 1 week, 2 weeks or 4 weeks before EIU induction by intravenous injection of the JNK inhibitor according to SEQ ID NO: 172 (“XG-104”) at a single dose of 1 mg/kg (dose volume 1 ml/kg) in the tail vein. Dexamethasone 2 mg/kg or vehicle (NaCl 0.9%) were injected intravenously immediately before EIU induction.\nThe effect of the JNK inhibitor according to SEQ ID NO: 172 (“XG-104”) on EIU was evaluated using clinical scoring and PMN cells quantification 24 hours after induction. […]\nFor histology, eighteen eyeballs (one per animal) were collected and fixed for 1 h at room temperature in phosphate buffered saline (PBS) containing 4% paraformaldehyde before being rinsed overnight in PBS. […] After nuclei staining with DAPI (Sigma-Aldrich, France), sections were mounted in PBS/Glycerol (1/1) and observed by fluorescence photomicroscopy (FXA Microphot, Nikon, USA). […] PMN cells identified by the shape of their nuclei stained with DAPI, were quantified on histological sections. […]", "note": "At least one structure is not confirmed: it was looked up by name or label, or the drawing left a doubt."}
{"smiles": "C[C@@H]1C[C@H]2[C@@H]3CCC4=CC(=O)C=C[C@]4(C)[C@@]3(F)[C@@H](O)C[C@]2(C)[C@@]1(O)C(=O)CO", "note": "[dexamethasone, reference compound]", "values": [{"measurement": "number of PMN cells", "value": "significantly decreased"}]}
